Measurements taken from patent publication US20120263794A1, “TREATMENT OF EYE DISEASES USING ENCAPSULATED CELLS ENCODING AND SECRETING A NEUROPROTECTIVE FACTOR AND/OR AN ANTI-ANGIOGENIC FACTOR” (BIOCOMPATIBLE UK LTD., priority 2009, published 2012).

Experiments:
[1] = system: hTERT-MSC and HEK293 cells; test: Transient expression of different GLP-1 constructs (active GLP-1); type: cell-based, human; details: transient transfection; both in hTERT-MSC and in HEK293 cells
[2] = system: hTERT-MSC cells; test: GLP-1 expression of stably transfected hTERT-MSC cell clones; type: cell-based, human; details: hTERT-MSC cell clones stably expressing GLP-1

Substance	active GLP-1 level after transient expression [1]	active GLP per 10^6 cells and hour [2] [pmol]
GLP1(7-37)-IP2-GLP1(7-37) [#217 GLP1(7-37)-IP2-GLP1(7-37)]	enormous gain in expression	2.7
GLP-1 (7-37) [#103 GLP1(7-37)]	only marginal active GLP-1 level	0.4
